Laboratory results: patent US20250042935 (published 2025)
Several values for one entry are separate records, joined by “and”; a condition that tells them apart may be missing. Equal values may be shown once.

Experiment: Fmoc solid-phase peptide synthesis; pre-loaded Fmoc-amino acid Wang resins (~0.34 mmol/g loading); DIC, oxyma, 2,4,6-collidine
Conditions: late stage modification step; TABLE-US-00006 r42

Q: For “SFSGFGSPLDRLSAGSVDHKGKQRKVVDHPKRRFGIPMDRIGRNRLSNSR”, which step yield is on record?
A: 57% and 66%
